Experimental data: publication PMC5571219
Results are given in words; binding and its absence hold for the method and conditions named. Binding seen in cells or lysates may run through a third protein. Some binding calls cover weakened binding; strength is not graded here. Sequences can lack the tags named with a protein.

T1: HA-tagged wild-type Whi7 (plasmid pWHI7) (S. cerevisiae) (UniProt P36167)
T1 sequence: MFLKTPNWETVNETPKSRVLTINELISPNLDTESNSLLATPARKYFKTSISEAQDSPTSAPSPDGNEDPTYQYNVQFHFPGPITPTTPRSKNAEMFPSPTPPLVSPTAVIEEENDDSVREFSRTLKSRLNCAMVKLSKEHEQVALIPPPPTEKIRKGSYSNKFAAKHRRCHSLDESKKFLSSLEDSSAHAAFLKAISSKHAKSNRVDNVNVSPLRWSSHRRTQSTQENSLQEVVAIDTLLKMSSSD

T2: HA-tagged Whi5 (S. cerevisiae) (UniProt Q12416)
T2 sequence: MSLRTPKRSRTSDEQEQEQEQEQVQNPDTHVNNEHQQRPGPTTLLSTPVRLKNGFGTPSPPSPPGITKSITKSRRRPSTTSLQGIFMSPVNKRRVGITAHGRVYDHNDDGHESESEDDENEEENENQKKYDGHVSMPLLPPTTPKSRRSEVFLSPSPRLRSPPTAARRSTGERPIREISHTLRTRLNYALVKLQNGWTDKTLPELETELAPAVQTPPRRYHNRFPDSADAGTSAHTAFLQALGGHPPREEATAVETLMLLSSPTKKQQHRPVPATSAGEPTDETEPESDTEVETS

B1: myc-tagged Swi4 (protein, UniProt P25302 1-1093)
chain: MPFDVLISNQKDNTNHQNITPISKSVLLAPHSNHPVIEIATYSETDVYECYIRGFETKIVMRRTKDDWINITQVFKIAQFSKTKRTKILEKESNDMQHEKVQGGYGRFQGTWIPLDSAKFLVNKYEIIDPVVNSILTFQFDPNNPPPKRSKNSILRKTSPGTKITSPSSYNKTPRKKNSSSSTSATTTAANKKGKKNASINQPNPSPLQNLVFQTPQQFQVNSSMNIMNNNDNHTTMNFNNDTRHNLINNISNNSNQSTIIQQQKSIHENSFNNNYSATQKPLQFFPIPTNLQNKNVALNNPNNNDSNSYSHNIDNVINSSNNNNNGNNNNLIIVPDGPMQSQQQQQHHHEYLTNNFNHSMMDSITNGNSKKRRKKLNQSNEQQFYNQQEKIQRHFKLMKQPLLWQSFQNPNDHHNEYCDSNGSNNNNNTVASNGSSIEVFSSNENDNSMNMSSRSMTPFSAGNTSSQNKLENKMTDQEYKQTILTILSSERSSDVDQALLATLYPAPKNFNINFEIDDQGHTPLHWATAMANIPLIKMLITLNANALQCNKLGFNCITKSIFYNNCYKENAFDEIISILKICLITPDVNGRLPFHYLIELSVNKSKNPMIIKSYMDSIILSLGQQDYNLLKICLNYQDNIGNTPLHLSALNLNFEVYNRLVYLGASTDILNLDNESPASIMNKFNTPAGGSNSRNNNTKADRKLARNLPQKNYYQQQQQQQQPQNNVKIPKIIKTQHPDKEDSTADVNIAKTDSEVNESQYLHSNQPNSTNMNTIMEDLSNINSFVTSSVIKDIKSTPSKILENSPILYRRRSQSISDEKEKAKDNENQVEKKKDPLNSVKTAMPSLESPSSLLPIQMSPLGKYSKPLSQQINKLNTKVSSLQRIMGEEIKNLDNEVVETESSISNNKKRLITIAHQIEDAFDSVSNKTPINSISDLQSRIKETSSKLNSEKQNFIQSLEKSQALKLATIVQDEESKVDMNTNSSSHPEKQEDEEPIPKSTSETSSPKNTKADAKFSNTVQESYDVNETLRLATELTILQFKRRMTTLKISEAKSKINSSVKLDKYRNLIGITIENIDSKLDDIEKDLRANA
B2: myc-tagged Swi6 (protein, UniProt P09959 1-803)
chain: MALEEVVRYLGPHNEIPLTLTRDSETGHFLLKHFLPILQQYHDTGNINETNPDSFPTDEERNKLLAHYGIAVNTDDRGELWIELEKCLQLLNMLNLFGLFQDAFEFEEPETDQDEEDPSHSKLPENKTKSENSKDNISSKRINNLQDMSLDSDAHRELGSPLKKLKIDTSVIDAESDSTPNTARGKPNDDINKGPSGDNENNGTDDNDRTAGPIITFTHDLTSDFLSSPLKIMKALPSPVVNDNEQKMKLEAFLQRLLFPEIQEMPTSLNNDSSNRNSEGGSSNQQQQHVSFDSLLQEVNDAFPNTQLNLNIPVDEHGNTPLHWLTSIANLELVKHLVKHGSNRLYGDNMGESCLVKAVKSVNNYDSGTFEALLDYLYPCLILEDSMNRTILHHIIITSGMTGCSAAAKYYLDILMGWIVKKQNRPIQSGTNEKESKPNDKNGERKDSILENLDLKWIIANMLNAQDSNGDTCLNIAARLGNISIVDALLDYGADPFIANKSGLRPVDFGAGTSKLQNTNGGDENSKMVSKGDYDGQKNGKAKKIRSQLLKNPPETTSLINDVQNLLNSISKDYENETVQYNEKLEKLHKELNEQREELANSREQLANVKQLKDEYSLMQEQLTNLKAGIEEEEESFREESKKLGIIADESSGIDWDSSEYDADEPFKVEFLSDFLEDKLQKNYEGDISKLLEAESKEQIMEQIRNQLPAEKIQSMLPPTVLLKARINAYKRNDKHLTNVLDTISTKQSELENKFRRVLSLCLKIDENKVDNMLDGLLQAISSEDPQDIDTDEMQDFLKKHAS

Columns and labels:
[1] = molecular target: T1, HA-tagged wild-type Whi7 (plasmid pWHI7) (S. cerevisiae); assay: co-IP; HA-tagged Whi7 or Whi5 immunoprecipitated from yeast crude extracts with HA-probe (F-7) antibody on Dynabeads Protein G, 20 min at room temperature; 50 mM Tris-HCl pH 8, 250 mM NaCl, 5 mM EDTA, 0.1% Triton X-100; western blot of input, unbound and immunoprecipitated fractions; for Grr1ΔF-flag cells were grown on raffinose and transferred to galactose for 4 h
[2] = molecular target: T2, HA-tagged Whi5 (S. cerevisiae); assay: as above

Row | Binder | binding [1] | binding [2]
1 | B1 | binds | binds
2 | B2 | binds | binds
